Results are given in words; binding and its absence hold for the method and conditions named. Binding calls can cover weak binding; strength is not graded here.

By UniProt entry, the sequences of proteins in these tests, tags left out. Where a name states a change or a piece, a line headed by the entry shows the natural chain unless it says otherwise.
UniProt B7F924: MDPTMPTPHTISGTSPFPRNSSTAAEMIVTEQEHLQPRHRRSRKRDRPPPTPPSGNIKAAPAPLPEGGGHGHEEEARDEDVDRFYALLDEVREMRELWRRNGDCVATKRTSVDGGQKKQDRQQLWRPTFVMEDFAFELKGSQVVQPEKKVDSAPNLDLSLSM
UniProt Q5QM06: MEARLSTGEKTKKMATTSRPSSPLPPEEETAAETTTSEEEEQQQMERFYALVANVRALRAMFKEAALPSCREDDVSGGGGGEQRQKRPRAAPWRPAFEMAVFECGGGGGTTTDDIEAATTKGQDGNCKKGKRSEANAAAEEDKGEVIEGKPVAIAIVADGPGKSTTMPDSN
UniProt Q6L589: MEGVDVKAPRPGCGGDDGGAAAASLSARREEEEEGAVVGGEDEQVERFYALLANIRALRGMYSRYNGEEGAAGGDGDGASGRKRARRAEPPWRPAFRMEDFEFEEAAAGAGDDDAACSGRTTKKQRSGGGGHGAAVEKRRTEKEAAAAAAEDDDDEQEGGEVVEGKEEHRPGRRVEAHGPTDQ

The target in this assay is T1, LexA:NH1 (rice (Oryza sativa L)) (UniProt Q9FDY4).
T1 sequence: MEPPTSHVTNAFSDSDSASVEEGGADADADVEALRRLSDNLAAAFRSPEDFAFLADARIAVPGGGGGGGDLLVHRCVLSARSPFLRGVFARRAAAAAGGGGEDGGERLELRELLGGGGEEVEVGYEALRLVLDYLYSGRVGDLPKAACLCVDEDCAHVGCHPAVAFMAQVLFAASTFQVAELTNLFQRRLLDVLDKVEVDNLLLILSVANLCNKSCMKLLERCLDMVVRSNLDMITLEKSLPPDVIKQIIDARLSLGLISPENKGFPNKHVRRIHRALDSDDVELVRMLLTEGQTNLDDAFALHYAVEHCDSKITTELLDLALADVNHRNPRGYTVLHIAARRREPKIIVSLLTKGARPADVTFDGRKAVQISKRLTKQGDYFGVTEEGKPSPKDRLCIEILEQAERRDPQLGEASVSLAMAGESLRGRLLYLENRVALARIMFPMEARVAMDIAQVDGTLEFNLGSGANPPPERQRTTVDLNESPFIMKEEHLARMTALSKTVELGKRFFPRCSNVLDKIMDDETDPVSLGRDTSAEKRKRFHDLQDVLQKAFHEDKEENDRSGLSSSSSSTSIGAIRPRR
Put plainly: two-hybrid; yeast; NH1 fused to LexA as bait, NRR, its mutants and homologues fused to B42AD as prey; blue colour indicates a positive interaction.
Take B42AD:RH3 (from UniProt B7F924): the binding result is recorded as “binds”.

B42AD:RH2 (from UniProt Q5QM06): the binding result was “binds weakly”.

On to B42AD:RH1 (from UniProt Q6L589), for which the binding entry is listed as “binds”.
